Laboratory results from article PMC11169420, “The kinase ZYG-1 phosphorylates the cartwheel protein SAS-5 to drive centriole assembly in C. elegans” (EMBO Reports, 2024).
These are yes or no findings as the source states them, for the method shown. Sequences can lack the tags named with a protein.

Target: T1, GST-SAS-5 fragment spanning amino acids 108-404 (C-terminal 6X-His) (C. elegans) (UniProt Q20010)
T1 sequence: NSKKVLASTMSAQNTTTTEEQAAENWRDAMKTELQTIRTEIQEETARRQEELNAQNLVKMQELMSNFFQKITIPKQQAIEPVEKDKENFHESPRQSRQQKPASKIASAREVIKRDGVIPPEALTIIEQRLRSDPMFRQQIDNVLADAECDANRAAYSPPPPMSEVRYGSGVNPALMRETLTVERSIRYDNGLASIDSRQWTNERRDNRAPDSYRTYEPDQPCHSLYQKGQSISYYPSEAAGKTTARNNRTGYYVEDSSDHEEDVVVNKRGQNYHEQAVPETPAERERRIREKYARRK
Test: pull-down; GST-SAS-5 baits (4.32 mM as printed) on magnetic glutathione beads, blocked with Odyssey blocking buffer; ZYG-1 prey (0.2 mM as printed) 1 h at 4 °C; washed with 50 mM Tris pH 8.0, 50 mM NaCl, 5 mM DTT; immunoblot with anti-GST and anti-ZYG-1; GST alone as negative control; both purified

B1: ZYG-1::His6, full-length, refolded in vitro (enzyme, UniProt Q9GT24 1-706)
chain: MSGGKSGSRLSAYSHLKEIGKGGFGVVYAAQRENGEKVAIKRIDKKVPKNRVWTEIQTMKELKKSKYVVEFYEDFVEDGYTYIVMELCEGGSLQAYVREHGALDDATAVHVLRQLISAVSFMHRVNVIHRDLSAGNVFIKDSKKKKMTVKLGDFGLATTLGRGETTCTIVGTPGFIAPQVYDQEYTQSADVYSLGAVLYTMLTARNPPPKGLPPTCGMSPNAARLVEQMMDTDAKKRIPLTQIVLSEFMYENTNENAVIFSREHSRDGRRQRSREPVRSSRDDRSRDGRALIRSSSQPAHSGRAPLSNRPIHDRMPSTSSRGFDSERGRERDRDSGRGTVPPSREDRNRSQLWPIRMDRLEGQRVCTAGGRYIVELDTRCRFEVAAQGNFVKRILIVEVDEMVQTVYVHRIPDRTVRGRNGEEELITLTNNPFVYTSYSQMPKEVQNDYMRLQKMVAVTISGRVAKVTFRRPSQFPDAQAQLMENGDLRIKLPRSVIVRKMDNGEIFNCIDGIATQKQAVSGITLTKVNEVYKYLIRFEQCLNGMDRGMVCFPIVFSAGTNMVGSSPSSLMPSGSSQTSRFPFSNLSNNQPSLVPHSAPFLTKPTSSQRASSANVQRRVSTDENSSPSVAPSKYKIKIDPTTQKVRSIQATDGRVLRCSTSKADQFIFTDPAIRPDDQRFMRTDRVPDRASEMLHTLCERMRKLHQ
- binding: no binding (tested: 0.2 mM prey (so in the source))
